In PubChem BioAssay AID488909 (Broad Institute, 2010):
Inconclusive results, whose numbers are uncertain, are shown with a selection of clear calls. Active and inactive are the calls of the source.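 How the source made its calls: active means fluorescence drops, meaning less fungal growth, with half-maximal dose at most ten times the top valid tested dose; inconclusive means flat curve with 30 to 70% inhibition, or poor fit; inactive means the rest, including compounds that raise the signal.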

Test: resistant Candida growth with fluconazole co-treatment – CaCi-8 strain, Alamar Blue, dry powder, set 2, dose response (AID 488909)
Conditions: C. albicans CaCi-8 + fluconazole, 48 h; at 26 µM (top of the series)

Question: Which activity change, negative = inhibition does the source give for `O=C(O)Cn1nc(-c2ccccc2)c2ccccc21` here?
Answer: inconclusive: -38.2%

Question: With `O=C(c1ccc(Cl)cc1)N1CCNCC1` as the compound, how does the activity change, negative = inhibition read?
Answer: inconclusive: -48.4%

Question: Which activity change, negative = inhibition does the source give for `Cc1cc(N2CCN(C(=O)c3ccc(Cl)cc3)CC2)c2ccccc2n1` here?
Answer: inactive: -20.2%

Question: With `Clc1ccc2c(N3CCNCC3)ccnc2c1` as the compound, how does the activity change, negative = inhibition read?
Answer: inactive: 8.86%

Question: For `O=C(c1ccc(Cl)cc1)N1CCN(c2ccnc3ccccc23)CC1`, which activity change, negative = inhibition is on record?
Answer: inconclusive: -70%

Question: With `O=C(c1ccc(Cl)cc1)N1CCN(c2ccncc2)CC1` as the compound, how does the activity change, negative = inhibition read?
Answer: inconclusive: -32.1%

Question: Which activity change, negative = inhibition does the source give for `O=C(c1ccc(Cl)cc1)N1CCN(c2ncnc3nc[nH]c23)CC1` here?
Answer: inconclusive: -66.9%
